The values below come from PMC5035049, “Solution Structure of the Cuz1 AN1 Zinc Finger Domain: An Exposed LDFLP Motif Defines a Subfamily of AN1 Proteins” (PLoS ONE, 2016).

Sequences of proteins named here, by UniProt entry; tags and fusion partners are left off. Residues count along the entry.
UniProt P0CG63, residues 1-76: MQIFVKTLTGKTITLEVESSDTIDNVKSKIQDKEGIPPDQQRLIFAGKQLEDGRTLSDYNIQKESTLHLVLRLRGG

Test [1] has as its target T1, Cuz1 AN1 zinc finger domain, residues 11-59, with N-terminal 6x-Histidine tag (plasmid pJH190) (S. cerevisiae) (UniProt P53899).
T1 sequence: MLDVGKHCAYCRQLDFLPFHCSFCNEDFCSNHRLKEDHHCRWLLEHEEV
As to the kind of experiment: NMR titration; unlabeled recombinant 6xHis-tagged monoubiquitin added to the Cuz1 AN1 ZnF; spectral shifts looked for; both purified.

The target of test [2] is T1, Cuz1 AN1 zinc finger domain, residues 11-59, with N-terminal 6x-Histidine tag (plasmid pJH190) (S. cerevisiae). As to the kind of experiment: SEC; Superdex 75 16/60 column, purified Cuz1 AN1 ZnF protein, molecular weight size standards for reference; both purified.

These are yes or no findings as the source states them, for the method shown. Sequences can lack the tags named with a protein.

“recombinant 6xHis-tagged monoubiquitin (from UniProt P0CG63 1-76)”: the binding entry in test [1] is “no binding”.

B1: Cuz1 AN1 zinc finger domain, residues 11-59, with N-terminal 6x-Histidine tag (plasmid pJH190) (domain or fragment, UniProt P53899 11-59)
chain: MLDVGKHCAYCRQLDFLPFHCSFCNEDFCSNHRLKEDHHCRWLLEHEEV
As to B1, the binding entry in test [2] was “no binding”.
